Values from PubChem BioAssay AID1671195 (Yale University, 2021).
Screen: 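Genes whose knockdown alters LDL uptake in liver cancer cells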 (primary screen). System: human Huh7 hepatoma cells. Reagents: siRNA pool against human genes, 18 nM. Time to read-out: about 2 to 2.5 days of knockdown, then 8 h LDL uptake. Challenge: DiI-labelled LDL at 30 µg/ml for 8 h, in lipoprotein-deficient serum medium. Measured: 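Fluorescent LDL signal imaged in cells, scaled to the plate median, robust z-score for each replicate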. Direction: robust z-score: higher = more LDL uptake after knockdown. Call rule: 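a gene counts as active if at least two replicate z-scores exceed ±2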.
Shown is a random part of about 22,000 deposited reagents. Over the whole deposit, about 1,510 (6.9%) got an active call. 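Active includes knockdowns raising or lowering LDL uptake; positive z-scores mean more uptake, negative mean less.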 Unmarked entries are inactive.

The first 4 records, ahead of the listing:
no.	gene	robust z-score, replicate 1	robust z-score, replicate 2	robust z-score, replicate 3
1	WFDC13	2.34 (active)	2.88	2.17
2	GUCY1A1	-1.17	0.352	-0.339
3	ZBTB38	1.41	0.524	1.77
4	KDM1B	0.653	-0.223	0.0949

Results, from the start:
no.	gene	robust z-score, replicate 1	robust z-score, replicate 2	robust z-score, replicate 3
1	WFDC13	2.34 (active)	2.88	2.17
2	GUCY1A1	-1.17	0.352	-0.339
3	ZBTB38	1.41	0.524	1.77
4	KDM1B	0.653	-0.223	0.0949
5	CD34	-1.25	-0.967	-0.791
6	LRRC14	0.388	0.551	-1.56
7	USP43	0.876	0.783	0.713
8	OR9I1	0.0604	-0.194	-0.317
9	ARHGEF5	-1.36	-1.3	-2.33
10	CYP4B1	0.579	-0.106	-0.343
11	H2BP3	-1.41	-1.36	-1.39
12	SMAD7	-1.31	-1.01	-1.25
13	MAS1L	-0.958	-0.243	-0.935
14	LOC338731 (retired record)	0.575	0.631	0.84
15	SLX4IP	-0.111	0.886	0.0625
16	APIP	-0.504	-1.62	-0.847
17	TPT1P8	-1.11	-1.02	-1.04
18	U2AF1	-0.0244	-0.141	-0.322
19	MINPP1	0.734	0.654	0.254
20	ZNF3	-0.117	0.00884	-0.418
21	CRMP1	3.9 (active)	3.57	3.98
22	NEXN	0.868	0.884	0.408
23	LOC388351 (retired record)	2.36 (active)	2.55	2.14
24	RPS27L	1.01	-0.0576	-2.43
25	HMGXB4	0.708	-0.785	0.339
26	VWCE	0.701	0.403	0.376
27	DCTN2	0.347	0.152	-0.31
28	UBR5	-0.967	-1.48	-0.393
29	FLJ13224	-1.94 (active)	-2.35	-2.29
30	NRDC	-0.665	-0.155	-0.245
31	GPR158	-2.2	-1.6	-0.403
32	ZDHHC23	-0.938	-0.566	-0.818
33	LOC441312 (retired record)	0.453	-0.464	-0.323
34	CDKL2	-0.635	-0.968	-0.632
35	PDIK1L	1.87	0.399	0.632
36	LOC440276 (retired record)	1.05	0.0412	0.973
37	ZDHHC3	1.12	0.223	0.851
38	IGFLR1	0.148	0.551	0.178
39	LOC388006 (retired record)	-0.223	-0.29	-0.502
40	NAA38	1.1	1.4	1.54
41	FCGR1BP	-0.556	-0.641	-0.821
42	CCDC144NL-AS1	-0.976	-0.897	-1.11
43	SLAIN2	-0.201	0.831	1.9
44	FAM180A	-1.56	-1.3	-1.23
45	SLC25A40	0.127	-0.353	-0.577
46	MYH14	-0.954	-1.54	-1.6
47	MOSMO	-0.681	-0.874	-1.1
48	IZUMO1R	0.462	0.48	0.603
49	MFSD2B	-1.4	-1.9	-1.76
50	CLLU1	3.41	3.03	2.54
51	LOC440951 (retired record)	0.451	1.75	0.932
52	ZNF816	-1.17	-1.35	-1.14
53	TCP11L2	-0.589	-0.511	-0.375
54	PSME1	-0.525	-0.602	-1.54
55	PARAIL	0.402	0.339	0.884
56	SH3BP5L	-0.109	0.185	0.594
57	UBA1	-0.0195	1.79	2.73
58	SLIT2	0.817	-0.577	-0.751
59	TSSK1B	-0.774	-1.79	-1.8
60	NPL	1.68	2.32	1.78
61	CDC50A	0.687	-0.405	-0.619
62	TBP	-0.0789	-1.45	0.131
63	DNAAF2	1.26	-0.675	-0.712
64	GNAO1	-0.472	-1.2	-0.655
65	TAS2R13	-0.423	-1.98	-0.814
66	COMT	-0.43	-0.546	-0.0294
67	ZNF775	-0.99	-1.17	-1.18
68	PPP1R16B	-0.22	-0.308	0.0399
69	ZFP28	0.733	1.21	0.566
70	TSKS	-1.26	-0.782	-0.962
71	LOC441088 (retired record)	0.417	0.0508	0.146
72	ABCA2	-0.34	-0.156	-0.135
73	RAP1GAP2	1.69	2.59	1.75
74	KLF8	-1.24	-0.987	-0.905
75	TRAPPC1	0.614	0.361	0.482
76	NPTXR	1.12	0.957	0.839
77	PSMD2	1.72	1.22	2.39
78	GNRHR	-1.64	-1.1	-1.77
79	TAAR9	1.62	1.23	2.36
80	PTP4A2	1.47	1.62	1.28
81	LOC441105 (retired record)	-1.1	-1.31	-1.45
82	SIK1	1.4	1.55	1.31
83	FBXO3	0.891	1.9	0.888
84	PFAS	2.27 (active)	1.73	1.26
85	LINC00299	-0.915	-0.888	-0.858
86	SYAP1	0.138	-0.191	0.912
87	PEF1	0.69	0.649	0.95
